Measured values reported in patent US11325944B2 (priority 2017, dated 2022).
“Also recorded” adds a separate entry of the source. Part of at least one peptide drawing is inferred or uncertain, most often the ends. Where a SMILES comes first, the peptide text is derived from it. [ ]: non-standard residue; d: D form. d(cisHyp) = O=C(O)[C@H]1C[C@@H](O)CN1

Chains of the proteins cited; added tags and fusions are not shown. Lines headed by an entry give the natural chain unless they say otherwise; changes in a name come on top.
UniProt P33534: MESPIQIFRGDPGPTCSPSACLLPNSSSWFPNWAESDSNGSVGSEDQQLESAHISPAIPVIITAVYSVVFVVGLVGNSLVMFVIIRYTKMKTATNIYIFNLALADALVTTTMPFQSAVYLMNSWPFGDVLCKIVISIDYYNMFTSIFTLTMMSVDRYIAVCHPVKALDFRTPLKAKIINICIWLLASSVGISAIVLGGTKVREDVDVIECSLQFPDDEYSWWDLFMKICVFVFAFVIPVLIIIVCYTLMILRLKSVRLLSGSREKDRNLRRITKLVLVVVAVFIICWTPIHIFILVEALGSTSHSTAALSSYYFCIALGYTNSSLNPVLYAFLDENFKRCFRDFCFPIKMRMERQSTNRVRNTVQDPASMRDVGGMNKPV

Legend:
mice = assay: 55° C. warm water tail withdrawal test, antinociception (agonist activity); type: in vivo, mouse; conditions: for agonist activity (antinociception) after oral administration: 10 mg/kg orally, time course of 120 minutes
MOR = assay: Opioid receptor specificity of agonist activity, MOR knockout mice; type: in vivo, mouse; conditions: agonist activity measured in MOR or KOR knockout mice or with a DOR specific antagonist (FIG. 4)
[1] = test system: PC-3 prostate cancer cells; assay: Cell proliferation assay; type: cell-based; conditions: 48 hours, Muse Cell Analyzer, three independent experiments (FIG. 10)
KOR [2] = biological target: T1, KOR (Mus musculus, UniProt P33534); conditions: in vivo
KOR [3] = biological target: T1, KOR; type: in vivo; design: Generally, the mice used for this assay are C57Bl/6 mice; from tissue; host or cells: whole animal (C57Bl/6 mice), central nervous system; conditions: agonist activity measured in MOR or KOR knockout mice or with a DOR specific antagonist (FIG. 4)

SMILES: O=C1N[C@H](Cc2c[nH]c3ccccc23)C(=O)N[C@@H](Cc2ccccc2)C(=O)N2C[C@H](O)C[C@@H]2C(=O)N[C@H]1Cc1ccccc1 [JVA 4101, cyclo[Phe-cis-D-Hyp-Phe-D-Trp]] (cyclo(F[d(cisHyp)]F[dW]))
- agonist activity (antinociception) after oral administration (mice): agonist activity
- agonist activity (antinociception) after oral administration (mice; listed as hydroxyproline derivative): some agonist activity
- ED50 at 20 minutes (antinociception) (mice; i.c.v. administration, mice, 20 minutes): approximately 9 nmol
- MOR agonist activity (MOR): agonist activity
- inhibition of proliferation, total cell counts [1]: inhibition of the proliferation; also recorded: inhibited the proliferation
- KOR antagonist activity after oral administration (KOR [2]): KOR antagonist activity was observed
- antagonism of U50,488 administered centrally (i.c.v.) (KOR [2]): significantly antagonized
- antagonism of U50,488 administered i.p. (KOR [2]): significant antagonism
- opioid receptor selectivity of antagonist activity (KOR [2]): KOR selective antagonist activity
- KOR agonist activity (KOR [3]): agonist activity
